Results as given in paper PMC6776900, “PPM1G forms a PPP‐type phosphatase holoenzyme with B56δ that maintains adherens junction integrity” (EMBO Reports, 2019).
Like-named read-outs stand apart in the source and are kept apart here. These are yes or no findings as the source states them, for the method shown. Binding seen in cells or lysates may run through a third protein. Here binding means that the protein was enriched with, or labelled near, the bait; the list need not be complete.

By UniProt entry, the sequences of proteins in these tests, tags left out. Where a name states a change or a piece, a line headed by the entry shows the natural chain unless it says otherwise.
UniProt Q14738: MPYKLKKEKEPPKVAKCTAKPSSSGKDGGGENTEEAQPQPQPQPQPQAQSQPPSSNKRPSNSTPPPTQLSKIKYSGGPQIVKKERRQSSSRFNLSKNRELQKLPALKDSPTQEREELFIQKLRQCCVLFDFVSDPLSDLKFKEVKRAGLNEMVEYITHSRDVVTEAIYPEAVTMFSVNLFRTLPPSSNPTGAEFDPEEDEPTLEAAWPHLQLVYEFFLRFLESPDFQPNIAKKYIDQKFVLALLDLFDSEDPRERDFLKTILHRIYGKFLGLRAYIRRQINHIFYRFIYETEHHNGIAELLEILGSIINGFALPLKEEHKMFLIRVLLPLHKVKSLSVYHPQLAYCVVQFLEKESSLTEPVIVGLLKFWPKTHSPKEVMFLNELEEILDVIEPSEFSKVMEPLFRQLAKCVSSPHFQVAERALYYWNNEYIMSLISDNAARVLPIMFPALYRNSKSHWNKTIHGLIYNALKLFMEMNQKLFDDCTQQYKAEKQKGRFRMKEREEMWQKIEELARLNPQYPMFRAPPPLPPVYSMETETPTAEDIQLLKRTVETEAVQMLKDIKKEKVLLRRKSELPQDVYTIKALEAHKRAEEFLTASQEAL
UniProt Q15173: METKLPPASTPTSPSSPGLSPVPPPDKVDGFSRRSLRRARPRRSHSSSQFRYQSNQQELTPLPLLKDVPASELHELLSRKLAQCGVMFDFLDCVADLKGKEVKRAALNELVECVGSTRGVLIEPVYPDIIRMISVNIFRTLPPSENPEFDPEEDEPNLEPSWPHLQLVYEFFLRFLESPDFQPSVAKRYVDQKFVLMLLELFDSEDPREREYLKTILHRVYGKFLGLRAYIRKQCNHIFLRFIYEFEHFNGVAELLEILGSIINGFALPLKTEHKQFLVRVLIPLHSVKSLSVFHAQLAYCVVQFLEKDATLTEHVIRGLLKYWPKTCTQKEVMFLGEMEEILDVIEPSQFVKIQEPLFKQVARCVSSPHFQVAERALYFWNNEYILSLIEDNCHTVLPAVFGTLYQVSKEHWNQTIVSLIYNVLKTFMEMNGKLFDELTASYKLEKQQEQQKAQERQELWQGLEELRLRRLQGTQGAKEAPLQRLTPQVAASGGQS
UniProt P35221: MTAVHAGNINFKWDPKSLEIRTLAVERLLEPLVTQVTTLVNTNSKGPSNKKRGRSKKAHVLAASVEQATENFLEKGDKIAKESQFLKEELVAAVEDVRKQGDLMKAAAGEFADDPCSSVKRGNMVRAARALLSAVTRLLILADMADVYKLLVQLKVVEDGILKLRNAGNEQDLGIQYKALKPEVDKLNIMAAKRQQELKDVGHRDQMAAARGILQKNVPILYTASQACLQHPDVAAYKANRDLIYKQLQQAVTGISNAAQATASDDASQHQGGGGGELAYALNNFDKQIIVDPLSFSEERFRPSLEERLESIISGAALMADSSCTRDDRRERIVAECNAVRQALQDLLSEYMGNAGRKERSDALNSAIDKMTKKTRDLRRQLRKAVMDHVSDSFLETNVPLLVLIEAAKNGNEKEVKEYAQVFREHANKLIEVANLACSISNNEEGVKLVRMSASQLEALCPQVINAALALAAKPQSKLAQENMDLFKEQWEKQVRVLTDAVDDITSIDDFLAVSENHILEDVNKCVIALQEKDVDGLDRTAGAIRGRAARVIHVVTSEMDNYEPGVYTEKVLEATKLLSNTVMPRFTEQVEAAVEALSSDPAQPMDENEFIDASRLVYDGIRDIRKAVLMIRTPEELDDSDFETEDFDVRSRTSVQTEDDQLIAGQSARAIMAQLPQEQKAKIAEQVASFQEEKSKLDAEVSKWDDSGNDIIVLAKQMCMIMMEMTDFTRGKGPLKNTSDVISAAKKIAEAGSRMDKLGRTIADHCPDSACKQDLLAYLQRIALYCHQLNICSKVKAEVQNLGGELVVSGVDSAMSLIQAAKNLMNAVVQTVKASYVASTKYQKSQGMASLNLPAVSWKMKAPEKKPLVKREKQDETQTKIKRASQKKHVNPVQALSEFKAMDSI

Assays:
Assay in all cases: affinity purification with mass spectrometry; tandem affinity purification (streptavidin Sepharose, biotin elution, S-protein agarose) from lysates (NETN buffer) of HEK293T cells expressing the SFB-tagged bait; LC-MS/MS; duplicates
[1] = biological target: SFB-B56δ full length (FL) (human) (UniProt Q14738)
[2] = biological target: T1, SFB-PPM1G full length (FL) (human) (UniProt O15355)
T1 sequence: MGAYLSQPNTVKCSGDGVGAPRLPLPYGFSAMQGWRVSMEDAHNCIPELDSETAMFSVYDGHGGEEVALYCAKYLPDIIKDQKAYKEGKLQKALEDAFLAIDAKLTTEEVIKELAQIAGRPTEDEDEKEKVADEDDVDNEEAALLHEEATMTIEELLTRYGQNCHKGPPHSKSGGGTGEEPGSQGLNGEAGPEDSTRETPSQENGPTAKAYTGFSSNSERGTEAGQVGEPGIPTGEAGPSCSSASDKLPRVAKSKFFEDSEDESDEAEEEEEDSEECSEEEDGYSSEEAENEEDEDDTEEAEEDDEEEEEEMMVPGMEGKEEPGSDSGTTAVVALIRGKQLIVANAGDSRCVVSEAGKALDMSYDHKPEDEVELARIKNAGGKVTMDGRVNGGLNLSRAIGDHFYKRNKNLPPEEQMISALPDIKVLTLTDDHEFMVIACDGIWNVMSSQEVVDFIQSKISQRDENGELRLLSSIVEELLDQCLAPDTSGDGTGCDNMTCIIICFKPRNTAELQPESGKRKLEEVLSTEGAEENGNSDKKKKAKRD

[3] = biological target: SFB-B56δ full length (FL) (human) (UniProt Q14738); remark: listed apart in the source

“B56β found in the B56δ purification (from UniProt Q15173 1-497)” was tested, and the binding [1] was “binds”.

For “endogenous α-catenin (from UniProt P35221 1-906)”, the binding [2] was “binds”.

B1: 6xHis-tagged PPM1G (enzyme, human, UniProt O15355 1-546, looked up)
chain: T1 sequence
notes: PPM1G (PP2Cγ); The cloning into a His-tag vector is not described in the methods; also called His-PPM1G; recombinant PPM1G; source: recombinant
With B1 the binding [3] was “binds”.
